Measured values reported in publication PMC12037410, “Pharmacological targeting of BMAL1 modulates circadian and immune pathways” (Nature Chemical Biology, 2025).

Chains of the proteins cited; added tags and fusions are not shown.
UniProt O00327: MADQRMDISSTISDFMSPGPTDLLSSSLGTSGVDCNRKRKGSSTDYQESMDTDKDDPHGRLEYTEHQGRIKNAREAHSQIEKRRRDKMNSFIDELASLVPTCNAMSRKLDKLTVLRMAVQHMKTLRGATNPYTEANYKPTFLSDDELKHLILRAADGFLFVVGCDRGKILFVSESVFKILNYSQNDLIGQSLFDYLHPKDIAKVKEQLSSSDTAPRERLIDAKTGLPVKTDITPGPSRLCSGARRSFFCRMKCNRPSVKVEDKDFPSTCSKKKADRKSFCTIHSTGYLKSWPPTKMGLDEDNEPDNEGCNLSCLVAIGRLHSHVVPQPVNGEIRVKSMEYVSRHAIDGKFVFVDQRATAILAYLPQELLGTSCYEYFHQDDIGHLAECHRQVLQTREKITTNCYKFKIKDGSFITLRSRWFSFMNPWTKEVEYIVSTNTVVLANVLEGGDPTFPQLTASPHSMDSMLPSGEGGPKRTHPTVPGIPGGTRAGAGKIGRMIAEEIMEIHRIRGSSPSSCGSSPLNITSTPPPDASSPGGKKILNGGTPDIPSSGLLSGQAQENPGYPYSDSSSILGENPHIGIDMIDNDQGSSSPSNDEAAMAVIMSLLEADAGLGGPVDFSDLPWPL

Target: Endogenous BMAL1 in U2OS cells (human (endogenous in U2OS)) (UniProt O00327)
Test: affinity purification with mass spectrometry; RIME: U2OS cells treated with 100 uM CCM or 0.1% DMSO for 3 h and cross-linked in 1% formaldehyde; nuclear fraction lysed by sonication; anti-BMAL1 antibody or rabbit IgG on Protein A Dynabeads, overnight at 4 C; RIPA washes; on-bead digestion; label-free MS

B1: Endogenous CLOCK in U2OS cells (protein, UniProt O15516 1-846)
chain: MLFTVSCSKMSSIVDRDDSSIFDGLVEEDDKDKAKRVSRNKSEKKRRDQFNVLIKELGSMLPGNARKMDKSTVLQKSIDFLRKHKEITAQSDASEIRQDWKPTFLSNEEFTQLMLEALDGFFLAIMTDGSIIYVSESVTSLLEHLPSDLVDQSIFNFIPEGEHSEVYKILSTHLLESDSLTPEYLKSKNQLEFCCHMLRGTIDPKEPSTYEYVKFIGNFKSLNSVSSSAHNGFEGTIQRTHRPSYEDRVCFVATVRLATPQFIKEMCTVEEPNEEFTSRHSLEWKFLFLDHRAPPIIGYLPFEVLGTSGYDYYHVDDLENLAKCHEHLMQYGKGKSCYYRFLTKGQQWIWLQTHYYITYHQWNSRPEFIVCTHTVVSYAEVRAERRRELGIEESLPETAADKSQDSGSDNRINTVSLKEALERFDHSPTPSASSRSSRKSSHTAVSDPSSTPTKIPTDTSTPPRQHLPAHEKMVQRRSSFSSQSINSQSVGSSLTQPVMSQATNLPIPQGMSQFQFSAQLGAMQHLKDQLEQRTRMIEANIHRQQEELRKIQEQLQMVHGQGLQMFLQQSNPGLNFGSVQLSSGNSSNIQQLAPINMQGQVVPTNQIQSGMNTGHIGTTQHMIQQQTLQSTSTQSQQNVLSGHSQQTSLPSQTQSTLTAPLYNTMVISQPAAGSMVQIPSSMPQNSTQSAAVTTFTQDRQIRFSQGQQLVTKLVTAPVACGAVMVPSTMLMGQVVTAYPTFATQQQQSQTLSVTQQQQQQSSQEQQLTSVQQPSQAQLTQPPQQFLQTSRLLHGNPSTQLILSAAFPLQQSTFPQSHHQQHQSQQQQQLSRHRTDSLPDPSKVQPQ
In the case of B1, the binding is reported as “binds”.

No constants are given. Whether binding was seen depends on the method and setting. Binding seen in cells or lysates may run through a third protein. A yes stands for co-enrichment or nearness to the bait. Other partners may have been found.
